Measured values taken from PubChem BioAssay AID445 (National Center for Advancing Translational Sciences (NCATS), 2006).
The other results are listed elsewhere or left out. The main result of the screen is listed elsewhere. These columns were measured beside it and carry no call. The list favours compounds with an active or inconclusive main result. Words in brackets tell the shape of the fitted curve; partial curves, single points and poor fits give uncertain potencies.

Experiment: IkB Signaling
Settings: ABC-DLBCL IkBa-CBG/CBR dual luciferase ratio (green luciferase fused to IkBa over red control in OCI-Ly3 lymphoma cells), 4 h; measured here: control luc red channel unless noted
How it was run: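 In this assay, an IκBα–CBG68 fusion accumulates when IKK-driven degradation is blocked; native CBR normalizes for cell number. OCI-Ly3 cells were treated 4 h with compound and doxycycline, then green and red light read after Chroma-Glo addition.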

For `COc1cccc(C(=O)Nc2nc(-c3ccc(S(=O)(=O)N4CCOCC4)cc3)cs2)c1`, which AC50 is on record?
Its AC50 is 3.16 µM [falling, full curve].

For `COc1cc(NC(=O)c2ccc(Br)o2)ccc1NC(=O)c1ccccc1Cl`, which AC50 is on record?
The AC50 was 15.8 µM [falling, partial curve].

Which AC50 does the source give for `CCn1c(C(=O)N2CCCC(C(=O)NCCc3ccc(C)cc3)C2)cc2sccc21` (stereo not drawn) here?
Its AC50 is 15.8 µM [falling, partial curve].

Which AC50 does the source give for `Cc1cc(Nc2cccc(F)c2)n2nc(-c3ccco3)nc2n1` here?
The AC50 was 10 µM [falling, partial curve].

For `O=C(Cn1c(=O)oc2cc(S(=O)(=O)NCc3ccccc3)ccc21)NCc1ccc(F)cc1`, which AC50 is on record?
The AC50 was 15.8 µM [falling, partial curve].

Which AC50 does the source give for `O=C(Cn1nc(C(F)(F)F)c2c1CCCC2)Nc1ccc(F)c(Cl)c1` here?
The AC50 was 39.8 µM [rising, single point] [measured here: IkB-luc green channel].

For `Cc1cccc(N(C)C(=O)C2CCN(S(=O)(=O)c3cccc4nonc34)CC2)c1`, which AC50 is on record?
Its AC50 is 31.6 µM [falling, partial curve].

For `Cc1c(NC(=O)c2cc3ccccc3o2)cccc1-c1nc2ccccc2o1`, which AC50 is on record?
The AC50 was 7.94 µM [falling, partial curve].

Which AC50 does the source give for `CCCCc1nn2c(=O)cc(COC(=O)CNC(=O)c3ccccc3C)nc2s1` here?
Its AC50 is 1 µM [rising, full curve].

With `COc1ccc(OC)c(NC(=O)Cn2cc(C(=O)c3cccs3)c3ccccc32)c1` as the molecule, how does the AC50 read?
Its AC50 is 10 µM [falling, partial curve].

Which AC50 does the source give for `COc1ccc(CNC(=O)Cc2coc3ccc(C(C)C)cc23)cc1` here?
The AC50 was 20 µM [falling, partial curve].

Which AC50 does the source give for `CCOc1ccccc1CNC(=O)CSc1n[nH]c(-c2ccccc2Cl)n1` here?
Its AC50 is 39.8 µM [falling, partial curve].

Which AC50 does the source give for `Cn1ccnc1Sc1nc2ccccc2nc1NS(=O)(=O)c1ccccc1` here?
The AC50 was 1.26 µM [falling, full curve].

With `CCOC(=O)c1ccc(Nc2nc(C(=O)OCC)nc3ccccc23)cc1` as the molecule, how does the AC50 read?
The AC50 was 25.1 µM [falling, partial curve].

With `Cc1cc(Nc2cc(Cl)ccc2C)n2nc(Cc3ccccc3)nc2n1` as the molecule, how does the AC50 read?
Its AC50 is 39.8 µM [falling, single point].

Which AC50 does the source give for `CCCOc1ccccc1C1CC(=O)Nc2cc3c(cc21)OCCO3` (stereo not drawn) here?
The AC50 was 10 µM [falling, partial curve].

For `CCCNC(=O)c1c(N)n(-c2cccc(OC)c2)c2nc3ccccc3nc12`, which AC50 is on record?
Its AC50 is 15.8 µM [falling, partial curve].

For `Cc1cc(OCCn2cc(C(=O)c3ccco3)c3ccccc32)ccc1Cl`, which AC50 is on record?
The AC50 was 0.631 µM [falling, full curve].

For `COc1ccccc1NC(=O)CSc1oc(-c2ccco2)nc1S(=O)(=O)c1ccc(Br)cc1`, which AC50 is on record?
The AC50 was 15.8 µM [falling, partial curve].

Which AC50 does the source give for `COc1ccc(-c2nnc(SCC(=O)Oc3cccc(C)c3C)o2)cc1` here?
Its AC50 is 15.8 µM [falling, single point].

Which AC50 does the source give for `Cc1cccc(NC(=O)C2CCCN(c3nnc(-n4c(C)ccc4C)s3)C2)c1C` (stereo not drawn) here?
Its AC50 is 25.1 µM [falling, single point].

With `O=C(NCc1noc2ccccc12)Nc1ccc(F)cc1F` as the molecule, how does the AC50 read?
The AC50 was 15.8 µM [falling, single point].

For `CCOC(=O)c1nc(Nc2ccccc2C)c2ccccc2n1`, which AC50 is on record?
Its AC50 is 6.31 µM [rising, partial curve].

Which AC50 does the source give for `COc1ccccc1-n1c(CNC(=O)c2ccc(S(=O)(=O)N3CCOCC3)cc2)n[nH]c1=S` here?
Its AC50 is 0.316 µM [falling, full curve].

With `COc1ccc2cc(CN(C(=O)Nc3ccccc3)C3CCCC3)c(=O)[nH]c2c1` as the molecule, how does the AC50 read?
Its AC50 is 5.01 µM [falling, partial curve].

For `COc1ccc(C)cc1NC(=O)CN1C(=O)COc2ccc(S(=O)(=O)N3CCCCCC3)cc21`, which AC50 is on record?
Its AC50 is 25.1 µM [falling, single point].

With `CCCN(C(=O)Cn1c(=O)oc2cc(Cl)ccc21)c1ccc(C(C)C)cc1` as the molecule, how does the AC50 read?
The AC50 was 12.6 µM [falling, partial curve].

For `CC(C)c1ccc(NC(=O)CN2C(=O)c3cccc4cccc2c34)cc1`, which AC50 is on record?
Its AC50 is 6.31 µM [rising, single point].

Which AC50 does the source give for `CCc1ccc(S(=O)(=O)c2cn(C)c3cc(OC)c(OC)cc3c2=O)cc1` here?
The AC50 was 15.8 µM [falling, partial curve].

For `COc1ccccc1N1CCN(S(=O)(=O)c2cc(-c3cc(C)no3)ccc2C)CC1`, which AC50 is on record?
The AC50 was 15.8 µM [falling, partial curve].

For `CCc1ccc2oc(C(=O)NCCc3ccc(OC)c(OC)c3)cc(=O)c2c1`, which AC50 is on record?
Its AC50 is 25.1 µM [falling, partial curve].

Which AC50 does the source give for `COc1cccc(CN2C(=O)C3(SCC(=O)N3c3cc(C)cc(C)c3)c3ccccc32)c1` (stereo not drawn) here?
The AC50 was 7.94 µM [falling, partial curve].

Which AC50 does the source give for `Cc1ccc(C(C)C)c(OCC(=O)Nc2nc3c(s2)CCCC3)c1` here?
The AC50 was 2.51 µM [falling, full curve].

With `COc1ccc(S(=O)(=O)Nc2cc(-c3cn4cccc(C)c4n3)ccc2C)cc1C` as the molecule, how does the AC50 read?
The AC50 was 20 µM [falling, single point].

With `Cc1ccc2nc(-c3c[nH]c4ccccc34)c(Nc3ccccc3)n2c1` as the molecule, how does the AC50 read?
Its AC50 is 0.0126 µM [falling, full curve].

For `Cc1coc2c1c(C)cc1oc(=O)c(CC(=O)NCc3ccc(Cl)cc3)c(C)c12`, which AC50 is on record?
Its AC50 is 0.398 µM [rising, full curve].

For `Cc1ccc(C2(c3ccc(C)cc3)NC(=O)N(Cc3c(C)noc3C)C2=O)cc1`, which AC50 is on record?
Its AC50 is 31.6 µM [falling, single point].

With `Cc1cc(O)c(C(C)(C)C)cc1Sc1cc(C(C)(C)C)c(O)cc1C` as the molecule, how does the AC50 read?
The AC50 was 12.6 µM [falling, partial curve].

Which AC50 does the source give for `COc1ccccc1Oc1nc2c(C)cccn2c(=O)c1/C=C(\C#N)c1nc2ccccc2[nH]1` here?
The AC50 was 0.02 µM [falling, full curve, poor fit].

For `Cc1nn(CC(=O)NCc2cccc(F)c2)c(=O)c2c(C)n(-c3ccc(Cl)cc3)nc12`, which AC50 is on record?
Its AC50 is 31.6 µM [falling, partial curve].

With `CS(=O)(=O)c1ccc2nc(NC(=O)c3ccco3)sc2c1` as the molecule, how does the AC50 read?
Its AC50 is 10 µM [falling, partial curve].

For `COc1ccc2nc(N(Cc3cccnc3)C(=O)c3ccco3)sc2c1`, which AC50 is on record?
Its AC50 is 10 µM [falling, single point].

Which AC50 does the source give for `COc1ccc(N(C(=O)c2ccccc2C)S(=O)(=O)c2ccc(C)cc2)cc1` here?
Its AC50 is 10 µM [falling, partial curve, poor fit].

For `Cc1ccc2c(c1)c1c(c(=O)n(-c3ccccc3)c(=O)n1CC(=O)NCCC1=CCCCC1)n2C`, which AC50 is on record?
Its AC50 is 2 µM [falling, full curve].

Which AC50 does the source give for `CCOC(=O)C1=C(CN2CCN(c3cc(C)ccc3C)CC2)NC(=O)NC1c1ccccc1` (stereo not drawn) here?
Its AC50 is 39.8 µM [falling, single point].

Which AC50 does the source give for `CCOC(=O)c1cc(-c2ccc(C)cc2)n(CC(=O)Nc2ccc(OC)c(Cl)c2)c1C` here?
The AC50 was 20 µM [rising, partial curve].

Which AC50 does the source give for `Cc1ccc(CCNC(=O)c2cc3sccc3n2Cc2ccc(Cl)cc2)cc1` here?
The AC50 was 3.16 µM [falling, partial curve].

With `CC1CCCCN1C(=O)CSc1nc2ccccc2nc1Cc1ccc(Cl)cc1` (stereo not drawn) as the molecule, how does the AC50 read?
Its AC50 is 25.1 µM [falling, single point].

Which AC50 does the source give for `CCOc1ccc(C(=O)N2CCN(Cc3cc(=O)n4nc(-c5cccc(OC)c5)sc4n3)CC2)cc1` here?
Its AC50 is 25.1 µM [falling, partial curve].

Which AC50 does the source give for `Cc1cccc(NC(=O)c2ccc(F)c(S(=O)(=O)N(C)C3CCCCC3)c2)c1` here?
The AC50 was 15.8 µM [falling, partial curve].

Which AC50 does the source give for `COc1ccc(NC(=O)C(C)n2nc(C)c3c(C)n(-c4ccccc4)nc3c2=O)cc1Cl` (stereo not drawn) here?
Its AC50 is 39.8 µM [falling, single point].

Which AC50 does the source give for `CCOCCCNC(=O)C(c1ccc(Cl)cc1)N(Cc1ccc2c(c1)OCO2)C(=O)c1ccccc1O` (stereo not drawn) here?
Its AC50 is 12.6 µM [falling, partial curve].

With `O=C(NCc1ccc2c(c1)OCO2)C1CCN(S(=O)(=O)c2ccc(Br)s2)CC1` as the molecule, how does the AC50 read?
The AC50 was 12.6 µM [falling, partial curve].

Which AC50 does the source give for `COc1ccc(-c2nc(S(=O)(=O)c3ccccc3)c(N3CCCCC3)o2)cc1` here?
The AC50 was 20 µM [falling, partial curve].

Which AC50 does the source give for `CCN(Cc1nc(-c2ccc(OC)cc2)oc1C)S(=O)(=O)c1ccc(Cl)cc1` here?
Its AC50 is 25.1 µM [falling, single point].

For `Cc1ccc(C)c(OCCCn2c(-c3ccc(Cl)cc3)nc3ccccc3c2=O)c1`, which AC50 is on record?
Its AC50 is 15.8 µM [falling, partial curve].

For `CC1(C)CC(=O)C(C=NCCN2CCOCC2)=C(O)C1`, which AC50 is on record?
Its AC50 is 31.6 µM [rising, single point].

With `C=CCn1cc(C(=O)NCc2ccco2)c(=O)c2cc(S(=O)(=O)N3CCCCCC3)ccc21` as the molecule, how does the AC50 read?
Its AC50 is 12.6 µM [falling, partial curve].

For `Cc1ccc(Cl)cc1N1CCN(C(=O)c2cn(C)c3ccc(S(=O)(=O)N4CCC(C)CC4)cc3c2=O)CC1`, which AC50 is on record?
Its AC50 is 1.26 µM [falling, partial curve].

For `COc1ccc(NCc2nc3ccccc3n2CCOc2ccc(C)cc2)cc1`, which AC50 is on record?
Its AC50 is 1.26 µM [falling, full curve].

With `O=C(NCC(c1ccc(Cl)cc1)N1CCCCC1)c1ccccc1` (stereo not drawn) as the molecule, how does the AC50 read?
The AC50 was 20 µM [falling, partial curve].

Which AC50 does the source give for `CCCOc1ccc(C(=O)N(Cc2cccs2)C2CCS(=O)(=O)C2)cc1` (stereo not drawn) here?
Its AC50 is 39.8 µM [rising, single point].

With `Cc1ccc(NCc2nc3ccccc3n2CCOc2ccccc2C)cc1` as the molecule, how does the AC50 read?
The AC50 was 10 µM [falling, partial curve].
